Source: the supplement of paper PMC7024190
Counter-ions that a name gives are not always drawn. The list shows a part of the results. Single values are uncertain here, since repeats match poorly.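 The cells were human embryonic kidney cells carrying a Renilla luciferase gene, driven by the HSV-TK promoter, on a plasmid put in briefly by transfection. This is the first-round screen of about ten thousand compounds, looking for ones that raise reporter output.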

system: HEK 293FT; experiment: log relative Renilla luciferase luminescence (reporter expression vs reference, reference not stated) (log (base not stated)); higher = higher recombinant reporter expression; details: 10 µM; time after transfection 48 h

Structure (SMILES) | log
C1CCN2C[C@@H]3C[C@@H](CN4CCCC[C@@H]34)[C@H]2C1 [sparteine sulfate] | 0.0674
CC1CC(OC(=O)C(O)c2ccccc2)CC(C)(C)N1C (stereo not given) [eucatropine hydrochloride] | 0.0726
OC[C@H]1O[C@@H](n2cnc3c(NCc4ccco4)ncnc32)[C@H](O)[C@@H]1O [kinetin riboside] | 0.0238
CCCCCCCC/C=C/CCCCCCCCOP(=O)([O-])OCC[N+](C)(C)C [elaidylphosphocholine] | 0.0328
Cc1nnc(NS(=O)(=O)c2ccc(N)cc2)s1 [sulfamethizole] | 0.101
COc1cc(NS(C)(=O)=O)ccc1Nc1c2ccccc2nc2ccccc12 [amsacrine] | -0.85
C#CCCCCCCCCCCCc1ccco1 [avocadynofuran] | 0.0524
O=C1C2CC3CC1CC(O)(C3)C2 [idramantone] | 0.0308
CCN1CCN(c2cc3c(cc2F)c(=O)c(C(=O)O)cn3C2CC2)CC1 [enrofloxacin] | 0.107
CC(=O)O[C@@H]1CC2C(C)(C)C(=O)C3OC3[C@]2(C)C2CC[C@@]3(C)[C@H](c4ccoc4)OC(=O)C4OC43[C@@]21C (stereo not given in full) [epoxygedunin] | -0.0713
O=C(NCC(O)CO)c1c(I)c(C(=O)NCC(O)CO)c(I)c(N(CCO)C(=O)CO)c1I (stereo not given) [ioversol] | 0.0377
CO/N=C(\C(=O)N[C@@H]1C(=O)N2C(C(=O)O)=C(COC(N)=O)CS[C@H]12)c1ccco1 [cefuroxime sodium] | -0.134
Nc1ccc(S(=O)(=O)Nc2ccnn2-c2ccccc2)cc1 [sulfaphenazole] | 0.0308
FC(F)(Cl)C(F)(F)Cl [cryoflurane] | 0.076
CCC(=O)c1c(O)cc(O)cc1O [flopropione] | 0.0289
CC1Cc2ccccc2N1NC(=O)c1ccc(Cl)c(S(N)(=O)=O)c1 (stereo not given) [indapamide] | 0.0888
CC(C)C[C@@H]1NC(=O)[C@H](CCCN)NC(=O)[C@H](C(C)C)NC(=O)[C@H](Cc2ccc(O)cc2)N[C@@H](CCC(=O)O)C(=O)N[C@@H](CC(N)=O)C(=O)[C@@H](Cc2ccccc2)NC(=O)[C@H](Cc2ccccc2)NC(=O)[C@@H]2CCCN2C(=O)[C@@H](Cc2ccccc2)NC1=O [tyrothricin] | -1.98
Nc1ccc2cc3ccc(N)cc3nc2c1 [proflavine hemisulfate] | -1.07
C[C@H](CCC(=O)O)[C@H]1CC[C@H]2[C@@H]3CC[C@@H]4C[C@H](O)CC[C@]4(C)[C@H]3C[C@H](O)[C@]12C [deoxycholic acid] | 0.112
COc1ccc2cc(C(C)C(=O)O)ccc2c1 (stereo not drawn) [naproxen(+)] | -0.16
COc1c(O)cccc1O [2-methoxyresorcinol] | 0.0145
COC(=O)CC[C@@H](C)[C@H]1CC[C@H]2[C@@H]3[C@H](O)C[C@@H]4C[C@H](O)CC[C@]4(C)[C@H]3C[C@H](O)[C@]12C [cholic acid, methyl ester] | 0.0161
Cc1cc(CC(=O)O)n(C)c1C(=O)c1ccc(Cl)cc1 [zomepirac sodium] | -0.064
CCCCCCCCCCCCCCCC(=O)O[C@@H]1[C@@H](O)[C@@H](O)[C@@H]([C@H](NC(=O)[C@@H]2C[C@@H](CCC)CN2C)[C@H](C)Cl)O[C@@H]1SC [clindamycin palmitate hydrochloride] | 0.0938

Structure (SMILES) | log
CC12CCC(CC1)C(C)(C)O2 [eucalyptol] | -0.0721
CC(=O)Nc1ncc([N+](=O)[O-])s1 [nithiamide] | 0.0453
CC1(C)CC[C@]2(C(=O)O)CC[C@]3(C)C(=CC[C@@H]4[C@@]5(C)CC[C@H](O)[C@@](C)(CO)[C@@H]5CC[C@]43C)[C@@H]2C1 [hederagenin] | -0.0748
O=C1CC2(CCCC2)CC(=O)N1CCCCN1CCN(c2ncccn2)CC1 [buspirone hydrochloride] | 0.00694
CC[C@H]1OC(=O)[C@H](C)[C@@H](O[C@H]2C[C@@](C)(OC)[C@@H](O)[C@H](C)O2)[C@H](C)[C@@H](O[C@@H]2O[C@H](C)C[C@H](N(C)C)[C@H]2O)[C@](C)(O)C[C@@H](C)[C@@H]2N[C@@H](COCCOC)O[C@H]([C@H]2C)[C@]1(C)O [dirithromycin] | 0.0168
CC(C)/C(O)=C1/C(=O)O[C@@H](c2ccoc2)[C@]2(C)C(O)[C@@H](O)[C@@]34OC5(C)OC67CC(C)(C(O)[C@]6(O)[C@@H](O)[C@]3(O5)C12)[C@H](CC(=O)O)[C@]74C (stereo not given in full) [hydrolysis product of bussein] | 0.0605
CC(=O)OC1CC2CCC1(C)C2(C)C (stereo not given) [bornyl acetate] | 0.0261
O=c1cc[nH]c(=S)[nH]1 [2-thiouracil] | -0.0418
CC(=O)O[C@@H]1C[C@@]23C[C@@]24CC[C@H](O[C@@H]2OC[C@@H](O)[C@H](O)[C@H]2O)C(C)(C)[C@@H]4CC[C@H]3[C@]2(C)C[C@@H]3O[C@]4(C[C@@H](C)[C@@H]3[C@@]12C)O[C@H](O)[C@@]1(C)O[C@@H]41 [actein] | -0.0168
CN(C)c1nc(N(C)C)nc(N(C)C)n1 [altretamine] | 0.123
CC(C)NCC(O)c1ccc2ccccc2c1 (stereo not given) [pronetalol hydrochloride] | 0.0119
N[C@@H](Cc1ccccc1)C(=O)O [phenylalaniine (l) hydrochloride] | 0.105
O=C(O)c1cc(-c2ccccc2)nc2ccccc12 [cinchophen] | -0.987
CC(=O)O[C@]1(C(C)=O)CC[C@H]2[C@@H]3C[C@H](C)C4=CC(=O)CC[C@]4(C)[C@H]3CC[C@@]21C [medroxyprogesterone acetate] | 0.129
C[C@H]1C[C@@H]2[C@H]([C@@H](O)C[C@@]3(C)[C@H]2CC[C@]3(O)C(=O)CO)[C@@]2(C)C=CC(=O)C=C12 [methylprednisolone] | -1.32
NC(=O)C(c1ccccc1)(c1ccccc1)[C@@H]1CCN(CCc2ccc3c(c2)CCO3)C1 [darifenacin hydrobromide] | 0.226
CCCNCC(O)COc1ccccc1C(=O)CCc1ccccc1 (stereo not given) [propafenone hydrochloride] | 0.138
O=C(Nc1ccccc1)Nc1ccccc1 [diphenylurea] | 0.0115
O=[N+]([O-])c1cccc2cn[nH]c12 [7-nitroindazole] | 0.0747
COc1ccccc1OCC(O)CN1CCN(CC(=O)Nc2c(C)cccc2C)CC1 (stereo not given) [ranolazine] | 0.0765
O=c1c(O)c(-c2ccccc2)oc2cc(O)ccc12 [3,7-dihydroxyflavone] | -0.178
OC[C@H]1O[C@@H](Oc2cc(O)cc(/C=C/c3ccc(O)cc3)c2)[C@H](O)[C@@H](O)[C@@H]1O [piceid] | 0.0271
COc1ccc(C2CNC(=O)C2)cc1OC1CCCC1 (stereo not given) [rolipram] | -0.174
O=c1c(O)c(-c2ccc(O)cc2O)oc2cc(O)cc(O)c12 [morin] | -0.124

Among those listed so far, 5 have a furan ring, fused or not:
Structure (SMILES) | log
OC[C@H]1O[C@@H](n2cnc3c(NCc4ccco4)ncnc32)[C@H](O)[C@@H]1O [kinetin riboside] | 0.0238
C#CCCCCCCCCCCCc1ccco1 [avocadynofuran] | 0.0524
CC(=O)O[C@@H]1CC2C(C)(C)C(=O)C3OC3[C@]2(C)C2CC[C@@]3(C)[C@H](c4ccoc4)OC(=O)C4OC43[C@@]21C (stereo not given in full) [epoxygedunin] | -0.0713
CO/N=C(\C(=O)N[C@@H]1C(=O)N2C(C(=O)O)=C(COC(N)=O)CS[C@H]12)c1ccco1 [cefuroxime sodium] | -0.134
CC(C)/C(O)=C1/C(=O)O[C@@H](c2ccoc2)[C@]2(C)C(O)[C@@H](O)[C@@]34OC5(C)OC67CC(C)(C(O)[C@]6(O)[C@@H](O)[C@]3(O5)C12)[C@H](CC(=O)O)[C@]74C (stereo not given in full) [hydrolysis product of bussein] | 0.0605

(continued)

Structure (SMILES) | log
COc1cc(-c2coc3cc(O[C@@H]4O[C@H](CO)[C@@H](O)[C@H](O)[C@H]4O)c(OC)c(O)c3c2=O)cc(O)c1OC [iridin] | 0.0587
Cc1c(O)c(=O)ccn1C [deferiprone] | 0.0205
c1ccc([C@H]2CN3CCSC3=N2)cc1 [levamisole hydrochloride] | -1.99
CCC(=O)O[C@]1(C(=O)CCl)[C@@H](C)C[C@H]2[C@@H]3CCC4=CC(=O)C=C[C@]4(C)[C@@]3(F)[C@@H](O)C[C@@]21C [clobetasol propionate] | 0.153
O=C1C[C@@H](c2ccc(O)cc2)Oc2cc(O)cc(O)c21 [naringenin] | 0.00309
O=C1OCCN1/N=C/c1ccc([N+](=O)[O-])o1 [furazolidone] | -0.0961
CC(C)[C@H](N)C(=O)OCC(CO)OCn1cnc2c(=O)nc(N)[nH]c21 (stereo not given in full) [valganciclovir hydrochloride] | 0.107
NC(=O)c1ccc([N+](=O)[O-])cc1Cl [aklomide] | 0.0502
O=C(/C=C/C(=O)Oc1ccccc1C(=O)O)Oc1ccccc1C(=O)O [bissalicyl fumarate] | 0.0931
COc1c2occc2c(OC)c2c(=O)cc(C)oc12 [khellin] | -0.00699
C1CNCCN1 [piperazine] | 0.0618
Nc1cc(C(Cl)=C(Cl)Cl)c(S(N)(=O)=O)cc1S(N)(=O)=O [clorsulon] | -0.241
CC[C@H](C)C(=O)O[C@H]1CCC=C2C=C[C@H](C)[C@H](CC[C@@H]3C[C@@H](O)CC(=O)O3)[C@H]21 [mevastatin] | 3.55e-05
C[C@H](CCC(=O)O)[C@H]1CC[C@H]2[C@@H]3[C@H](O)C[C@@H]4C[C@H](O)CC[C@]4(C)[C@H]3CC[C@]12C [chenodiol] | 0.0109
NNc1nncc2ccccc12 [hydralazine hydrochloride] | 0.132
CC(=O)OCC(CCn1cnc2cnc(N)nc21)COC(C)=O [famciclovir] | 0.101
O=C(/C=C/c1ccc(O)c(O)c1)OCCc1ccccc1 [phenethyl caffeate (cape)] | -0.604
NCC(O)CC(=O)O (stereo not given) [aminohydroxybutyric acid] | 0.0815
CN1CCN(CCCN2c3ccccc3Sc3ccc(Cl)cc32)CC1 [prochlorperazine edisylate] | -0.0274
O=C1c2ccccc2C(=O)c2c1ccc(O)c2O [alizarin] | 0.216
CC(=O)Oc1cc(OC(C)=O)c2c(c1)O[C@H](c1ccc(OC(C)=O)c(OC(C)=O)c1)[C@H](OC(C)=O)C2 [epicatechin pentaacetate] | 0.121
CC(=O)O[C@H]1CC[C@@]2(C)[C@@H](CC[C@@H]3[C@@H]2CC(=O)[C@]2(C)[C@@H]4[C@H](C[C@@H]32)O[C@]2(CC[C@@H](C)CO2)[C@H]4C)C1 [hecogenin acetate] | 0.0824
